# Laboratory results from PubChem BioAssay AID248 (DTP/NCI, 2004).
# The list shows only some results of the screen, not a fair sample: it is rich in T/C values a quarter to a half above the control, in often repeated tests (any T/C) and in doses without a T/C. Other doses and runs of a compound stand elsewhere. T/C: endpoint of the treated group in % of that of the vehicle group. Some entries give survivors of the animals treated and no T/C: the source holds a T/C of zero for them, seemingly a mark for toxic or unscored doses. Some doses without a T/C left all or most animals alive at the check, yet need not have been tolerated: survival well below the control is almost never listed, so the zero probably covers shortened survival too. Survivors were counted at the toxicity check, usually on the fifth day, unless a day is given; later deaths do not show. Schedules are NCI's codes, taken here to give the interval after Q, in days (D) or hours (H), and the number of doses after X. Some schedules carry Z or #; the key to these is not given. Some molecules as drawn cover several salts, stereoisomers or complexes of the source; a dose is that of the sample tested. Some entries were tested several times; their values stand side by side, smallest first. For survival time, this PubChem deposit counts one and a half times the control or more as active, and values a quarter to a half above the control carry no call in these data; other NCI protocols may use other cut-offs. Brackets with × stand for listed records that agree. Some T/C values are followed by the survivors on the day toxicity was checked, most often the fifth; where none is given, no animal had died by that day.
# System: L1210 leukemia ip in BDF1 mice, survival T/C
# Assay: NCI In Vivo Anticancer Drug Screen. Data for tumor model L1210 Leukemia (intraperitoneal) in B6D2F1 (BDF1) mice
# Settings: higher T/C = longer survival
# [1] = T/C endpoint: mean survival time, dose: 400.0 mg/kg/injection, schedule: Q01DX001 (ip), vehicle: saline
# [2] = T/C endpoint: mean survival time, dose: 200.0 mg/kg/injection, schedule: Q01DX009 (ip), vehicle: Klucel (hydroxypropylcellulose) (HPC)
# [3] = T/C endpoint: mean survival time, dose: 400.0 mg/kg/injection, schedule: Q01DX009 (ip), vehicle: Klucel (hydroxypropylcellulose) (HPC)
# [4] = T/C endpoint: mean survival time, dose: 400.0 mg/kg/injection, schedule: Q04DX003 (ip), vehicle: Klucel (hydroxypropylcellulose) (HPC)
# [5] = T/C endpoint: mean survival time, dose: 200.0 mg/kg/injection, schedule: Q01DX001 (ip), vehicle: saline
# [6] = T/C endpoint: mean survival time, dose: 400.0 mg/kg/injection, schedule: Q04DX003 (ip), vehicle: saline
# [7] = T/C endpoint: mean survival time, dose: 200.0 mg/kg/injection, schedule: Q04DX003 (ip), vehicle: Klucel (hydroxypropylcellulose) (HPC)
# [8] = T/C endpoint: mean survival time, dose: 400.0 mg/kg/injection, schedule: Q04DX003 (ip), vehicle: saline with Tween-80
compound,measurement,setting,value
N#C[C@H](OC1OC(COC2OC(CO)C(O)C(O)C2O)C(O)C(O)C1O)c1ccccc1 (stereo partly drawn),survivor count,"T/C endpoint: median survival time, dose: 100.0 mg/kg/injection, schedule: Q01DX Z (ip), vehicle: water",0 of 8
same,survivor count,"T/C endpoint: median survival time, dose: 200.0 mg/kg/injection, schedule: Q01DX Z (ip), vehicle: water",0 of 8
CCC1CCN(CC)CC1,survivor count,"T/C endpoint: mean survival time, dose: 40.0 mg/kg/injection, schedule: Q01DX009 (ip), vehicle: saline",1 of 6
same,survivor count,"T/C endpoint: mean survival time, dose: 100.0 mg/kg/injection, schedule: Q04DX002 (ip), vehicle: saline",0 of 3 and 0 of 6
same,survivor count,"T/C endpoint: mean survival time, dose: 200.0 mg/kg/injection, schedule: Q04DX002 (ip), vehicle: saline",0 of 3 and 0 of 6
same,survivor count,"T/C endpoint: mean survival time, dose: 400.0 mg/kg/injection, schedule: Q04DX002 (ip), vehicle: saline",0 of 3 and 0 of 6
CCOC(=O)C1(C(=O)OCC)CCC1,survivor count,[1],6 of 6
CC(C)=CCNc1ncnc2c1c(C#N)cn2C1OC(CO)C(O)C1O (stereo not drawn),survivor count,"T/C endpoint: mean survival time, dose: 3.12 mg/kg/injection, schedule: Q01DX005 (ip), vehicle: saline",6 of 6
same,survivor count,"T/C endpoint: mean survival time, dose: 6.25 mg/kg/injection, schedule: Q01DX005 (ip), vehicle: saline",5 of 6
same,survivor count,"T/C endpoint: mean survival time, dose: 12.5 mg/kg/injection, schedule: Q01DX005 (ip), vehicle: saline",2 of 6
same,survivor count,"T/C endpoint: mean survival time, dose: 25.0 mg/kg/injection, schedule: Q01DX005 (ip), vehicle: saline",0 of 6
same,survivor count,"T/C endpoint: mean survival time, dose: 50.0 mg/kg/injection, schedule: Q01DX005 (ip), vehicle: saline",0 of 6
CCCCC1=C(OCC)C(CCCC)C1=O (stereo not drawn),survivor count,[2],6 of 6
same,survivor count,[3],0 of 6
same,survivor count,[4],5 of 6
Cc1cnc(C)c(OCCN2CC2)n1,survivor count,[5],0 of 6
same,survivor count,[1],0 of 6
O=P(CCl)(CCl)CCl,survivor count,"T/C endpoint: mean survival time, dose: 200.0 mg/kg/injection, schedule: Q01DX009 (ip), vehicle: saline with Tween-80",6 of 6
same,survivor count,"T/C endpoint: mean survival time, dose: 400.0 mg/kg/injection, schedule: Q01DX009 (ip), vehicle: saline with Tween-80",2 of 6
O=C(O)COc1cc(F)c(Cl)cc1Cl,survivor count,[3],3 of 6
CCCCCCCCCCCCSC(=N)N,survivor count,"T/C endpoint: mean survival time, dose: 50.0 mg/kg/injection, schedule: Q01DX009 (ip), vehicle: acetone",3 of 6
same,T/C,"T/C endpoint: mean survival time, dose: 50.0 mg/kg/injection, schedule: Q04DX003 (ip), vehicle: saline",135 % of control [5 of 6 alive]
same,survivor count,"T/C endpoint: mean survival time, dose: 75.0 mg/kg/injection, schedule: Q04DX003 (ip), vehicle: saline",4 of 6
same,survivor count,"T/C endpoint: mean survival time, dose: 100.0 mg/kg/injection, schedule: Q04DX003 (ip), vehicle: acetone",5 of 6
same,survivor count,"T/C endpoint: mean survival time, dose: 170.0 mg/kg/injection, schedule: Q04DX003 (ip), vehicle: saline",3 of 6
same,survivor count,"T/C endpoint: mean survival time, dose: 200.0 mg/kg/injection, schedule: Q04DX003 (ip), vehicle: acetone",3 of 6
same,survivor count,"T/C endpoint: mean survival time, dose: 200.0 mg/kg/injection, schedule: Q04DX003 (ip), vehicle: saline",1 of 6
same,survivor count,"T/C endpoint: mean survival time, dose: 400.0 mg/kg/injection, schedule: Q04DX003 (ip), vehicle: acetone",0 of 6
same,survivor count,[6],0 of 6
COC(C)c1cnccc1/C(C)=C1/Nc2ccccc2C1=O (stereo not drawn),survivor count,[7],6 of 6
S=c1[nH]ccs1,survivor count,[5],0 of 6
same,survivor count,[1],0 of 6
CN(Cc1cnc2nc(N)nc(N)c2n1)c1c(Cl)cc(C(=O)NC(CCC(=O)O)C(=O)O)cc1Br (stereo not drawn),T/C,"T/C endpoint: mean survival time, dose: 6.25 mg/kg/injection, schedule: Q01DX Z (ip), vehicle: saline",143 % of control
same,T/C,"T/C endpoint: mean survival time, dose: 100.0 mg/kg/injection, schedule: Q01DX Z (ip), vehicle: saline",125 % of control
same,survivor count,"T/C endpoint: mean survival time, dose: 400.0 mg/kg/injection, schedule: Q01DX Z (ip), vehicle: saline",5 of 6
C=C(Br)CNC(=O)OCCCC,survivor count,[6],6 of 6
CC1CC(C)(C)N=C(C(C)CC(C)(C)C)O1 (stereo not drawn),survivor count,[6],0 of 6
COc1ccc2c(ccc3nc(C)[nH]c(=O)c32)c1,survivor count,"T/C endpoint: mean survival time, dose: 200.0 mg/kg/injection, schedule: Q01DX001 (ip), vehicle: Klucel (hydroxypropylcellulose) (HPC)",3 of 3
same,survivor count,"T/C endpoint: mean survival time, dose: 400.0 mg/kg/injection, schedule: Q01DX001 (ip), vehicle: Klucel (hydroxypropylcellulose) (HPC)",0 of 3
C#CC(N)=O,survivor count,"T/C endpoint: mean survival time, dose: 25.0 mg/kg/injection, schedule: Q01DX009 (ip), vehicle: saline",3 of 6
same,survivor count,"T/C endpoint: mean survival time, dose: 50.0 mg/kg/injection, schedule: Q01DX009 (ip), vehicle: saline",0 of 6
same,survivor count,"T/C endpoint: mean survival time, dose: 100.0 mg/kg/injection, schedule: Q01DX009 (ip), vehicle: saline",0 of 6
same,survivor count,"T/C endpoint: mean survival time, dose: 100.0 mg/kg/injection, schedule: Q04DX003 (ip), vehicle: saline",1 of 6
same,survivor count,"T/C endpoint: mean survival time, dose: 150.0 mg/kg/injection, schedule: Q01DX001 (ip), vehicle: saline",0 of 6
same,survivor count,"T/C endpoint: mean survival time, dose: 300.0 mg/kg/injection, schedule: Q01DX001 (ip), vehicle: saline",0 of 6
NC(=O)c1ccccc1NC(=O)CCCOc1ccccc1,survivor count,[4],6 of 6
OCCCN1CCC2(CC1)SSC1(CCN(CCCO)CC1)S2,survivor count,"T/C endpoint: mean survival time, dose: 200.0 mg/kg/injection, schedule: Q01DX009 (ip), vehicle: saline",5 of 6
same,survivor count,[6],0 of 6
CCOC(=O)C(=O)c1c(N)n(C)c(=O)n(C)c1=O,survivor count,"T/C endpoint: mean survival time, dose: 50.0 mg/kg/injection, schedule: Q01DX009 (ip), vehicle: Klucel (hydroxypropylcellulose) (HPC)",2 of 3
same,survivor count,"T/C endpoint: mean survival time, dose: 100.0 mg/kg/injection, schedule: Q01DX009 (ip), vehicle: Klucel (hydroxypropylcellulose) (HPC)",0 of 3
same,survivor count,[2],0 of 3
C=C(Cl)CNN1CCOCC1,survivor count,[8],0 of 6
Cc1ccc(S(=O)(=O)CCN2CCN(C)CC2)cc1,survivor count,[1],0 of 4
O=C(CCN1CC1)Nc1ccc(NC(=O)CCN2CC2)cc1,T/C,"T/C endpoint: mean survival time, dose: 4.4 mg/kg/injection, schedule: Q01DX009 (ip), vehicle: Klucel (hydroxypropylcellulose) (HPC)",144 % of control
same,T/C,"T/C endpoint: mean survival time, dose: 10.0 mg/kg/injection, schedule: Q01DX009 (ip), vehicle: Klucel (hydroxypropylcellulose) (HPC)",140 % of control (2×)
same,T/C,"T/C endpoint: mean survival time, dose: 15.0 mg/kg/injection, schedule: Q01DX009 (ip), vehicle: Klucel (hydroxypropylcellulose) (HPC)",127 % of control
same,T/C,"T/C endpoint: mean survival time, dose: 20.0 mg/kg/injection, schedule: Q04DX003 (ip), vehicle: Klucel (hydroxypropylcellulose) (HPC)",136 and 148 % of control
same,survivor count,"T/C endpoint: mean survival time, dose: 40.0 mg/kg/injection, schedule: Q01DX009 (ip), vehicle: Klucel (hydroxypropylcellulose) (HPC)",1 of 6
same,survivor count,"T/C endpoint: mean survival time, dose: 80.0 mg/kg/injection, schedule: Q04DX003 (ip), vehicle: Klucel (hydroxypropylcellulose) (HPC)",6 of 6
same,survivor count,"T/C endpoint: mean survival time, dose: 100.0 mg/kg/injection, schedule: Q04DX003 (ip), vehicle: Klucel (hydroxypropylcellulose) (HPC)",5 of 6
same,survivor count,[7],5 of 6
same,survivor count,[4],5 of 6
COC(=O)COc1ccc(Cl)cc1C(=O)O,survivor count,[8],5 of 6
O=C(O)CNC(=O)CNC(=O)C(Br)Cc1ccccc1 (stereo not drawn),survivor count,[3],6 of 6
C=CCNC(=S)NNC(=S)NNc1ccccc1,survivor count,"T/C endpoint: mean survival time, dose: 400.0 mg/kg/injection, schedule: Q01DX009 (ip), vehicle: acetone",6 of 6
COc1cc(C=Nc2cc(Cl)c(Cl)c(Cl)c2)ccc1N(CCCl)CCCl,T/C,"T/C endpoint: mean survival time, dose: 44.0 mg/kg/injection, schedule: Q01DX001 (ip), vehicle: carboxymethylcellulose (CMC)",127 % of control
same,T/C,"T/C endpoint: mean survival time, dose: 60.0 mg/kg/injection, schedule: Q01DX001 (ip), vehicle: carboxymethylcellulose (CMC)",126 % of control
same,T/C,"T/C endpoint: mean survival time, dose: 66.0 mg/kg/injection, schedule: Q01DX001 (ip), vehicle: carboxymethylcellulose (CMC)",130 % of control
same,T/C,"T/C endpoint: mean survival time, dose: 75.0 mg/kg/injection, schedule: Q01DX001 (ip), vehicle: carboxymethylcellulose (CMC)",141 % of control
same,T/C,"T/C endpoint: mean survival time, dose: 100.0 mg/kg/injection, schedule: Q01DX001 (ip), vehicle: carboxymethylcellulose (CMC)",136 % of control
same,T/C,"T/C endpoint: mean survival time, dose: 150.0 mg/kg/injection, schedule: Q01DX001 (ip), vehicle: carboxymethylcellulose (CMC), evaluated on day 30",134 % of control
same,T/C,"T/C endpoint: mean survival time, dose: 150.0 mg/kg/injection, schedule: Q01DX001 (ip), vehicle: carboxymethylcellulose (CMC), run until all animals had died",125 % of control
same,survivor count,"T/C endpoint: mean survival time, dose: 300.0 mg/kg/injection, schedule: Q01DX001 (ip), vehicle: carboxymethylcellulose (CMC)",5 of 6
